Laboratory results published in PubChem BioAssay AID493014 (National Center for Advancing Translational Sciences (NCATS), 2011).
Screen size: about 340,000 compounds; about 170 (0.05%) were called active. The shares of active, inactive and inconclusive entries below differ from those in the screen. Calls come from the whole dose curve; as a rule, active = well fitted inhibition curve with a large enough effect in the signal ratio, with a control signal flat (not every such curve was filed as active); inconclusive = small, poorly fitted or top-dose-only effect, or effect the other way, or a change in a side signal; inactive = flat fitted curve, though single readings scatter; the % refers to the signal ratio. Potencies beside an inconclusive call are fits to weak or partial responses and may not hold up.

assay: qHTS Assay to Find Inhibitors of Chronic Active B-Cell Receptor Signaling; settings: ABC-DLBCL IkBa-CBG/CBR reporter, luminescence ratio (green luciferase fused to IkBa over red control in TMD8 lymphoma cells), 4 h; activity change, negative = inhibition: at 46.1 µM (top of the series) unless noted;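 for activity change, negative = inhibition: plate controls were basal doxycycline-induced cells for no effect and cells given 10 µM MG132 for full effect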
Procedure, shortened: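 TMD8 human ABC-DLBCL cells with doxycycline-inducible IκBα–green luciferase fusion and unfused red luciferase, in 0.5% FBS medium; compounds up to 46 uM, 4 h at 37C. Green/red luminescence ratio, filter-overlap corrected, fitted to concentration-response curves.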
Potency is the fitted concentration of half-maximal effect.

SMILES | Potency | activity change, negative = inhibition
COc1ccc(OC)c(NC(=O)N2CCCC(CNS(=O)(=O)c3cccs3)C2)c1 (stereo unspecified) | inconclusive: 10 µM [falling, partial curve, poor fit] | –
O=c1c2c3nc4ccccc4nc3n(/N=C/c3ccccn3)c2ncn1-c1ccccc1 | – | inconclusive: 0.543%
O=c1[nH][nH]c(=O)c2c(NS(=O)(=O)c3ccccc3)cccc12 | – | inactive: -11.3%
O=C(NCc1ccccc1)C(=O)NCC1OCCN1S(=O)(=O)c1ccc2c(c1)OCCO2 (stereo unspecified) | – | inconclusive: 0.792%
COc1ccc(C(=O)O)cc1S(=O)(=O)NCCc1ccccn1 | inconclusive: 6.31 µM [falling, partial curve, poor fit] | –
COC(=O)c1ccc(CO/N=C/c2ccc(OC)cc2)o1 | inconclusive: 25.1 µM [falling, single point] | –
CSc1ccccc1NC(=O)CN(C)CC(=O)Nc1c(F)cccc1F | – | inconclusive: -1.84%
COc1cc(OC)cc(C(=O)NCCSCc2ccc(Cl)cc2)c1 | – | inconclusive: -18.6%
CCc1ccc(-n2cc(-c3ccc(F)cc3)[n+]3c2SCCC3)cc1 | – | inactive: 3.23%
O=C1C(=C(c2ccccc2)c2ccccc2)Nc2ccccc21 | – | inconclusive: 6.17%
O=C(Nc1nccs1)c1ccc(CSc2ccccc2)o1 | inconclusive: 15.8 µM [falling, partial curve] | –
O=C(c1c(F)cccc1F)N1CCN(S(=O)(=O)c2ccc3c(c2)OCCO3)CC1 | inconclusive: 20.6 µM [falling, single point] | –
O=C(Nc1cccc(-c2cccc(Cl)c2)c1)C1CCN(Cc2ccon2)CC1 | – | inactive: 0.0308%
Cc1cccc(-c2nc(CSCC(=O)N3CCN(c4ccccn4)CC3)c(C)o2)c1 | – | inconclusive: -13.8%
O=S(=O)(NC1CCC(NS(=O)(=O)c2c(F)cccc2F)CC1)c1ccc2c(c1)OCCO2 (stereo unspecified) | – | inconclusive: 6.67%
CN1C(=O)Cc2cc(S(=O)(=O)NCc3ccc(Cl)cc3)ccc21 | – | inactive: 0.146%
O=C(NNC(=O)c1cccs1)c1ccccc1 | inconclusive: 22.4 µM [falling, single point] | –
O=C(NC(=S)Nc1ccccc1Cl)C1CC1 | inconclusive: 22.4 µM [cytotoxic, partial curve] | –
CSc1ccccc1NC(=O)Nc1ccc(F)c(Cl)c1 | inconclusive: 4.47 µM [falling, partial curve, poor fit] | –
COc1ccc(CCNC(=S)Nc2cccc(C)c2)cc1 | – | inconclusive: 22.6%
CCN(C(=O)c1ccc(S(=O)(=O)N2CCCCC2)cc1)C1CCS(=O)(=O)C1 (stereo unspecified) | – | inactive: -0.337%
O=C(CN1C(=O)S/C(=C\C=C\c2ccccc2)C1=O)NC1CCS(=O)(=O)C1 (stereo unspecified) | inconclusive: 28.2 µM [falling, single point] | –
CCn1c(-c2cc(-c3cccc(OC)c3)nc3ccccc23)n[nH]c1=S | – | inconclusive: -10.9%
CC12CCC(C(=O)Nc3ccccc3Br)(C/C1=N\O)C2(C)C (stereo unspecified) | – | inconclusive: 6.1%
COC(=O)c1c(NC(=O)CS(=O)(=O)c2ccccc2)sc(C)c1C | – | inconclusive: -7.63%
CCCCCC(=O)N/N=C/c1ccco1 | – | inconclusive: 0.51%

Some of the entries so far, in markdown.

| SMILES | Potency | activity change, negative = inhibition |
| --- | --- | --- |
| COc1ccc(OC)c(NC(=O)N2CCCC(CNS(=O)(=O)c3cccs3)C2)c1 (stereo unspecified) | inconclusive: 10 µM [falling, partial curve, poor fit] | – |
| O=c1c2c3nc4ccccc4nc3n(/N=C/c3ccccn3)c2ncn1-c1ccccc1 | – | inconclusive: 0.543% |
| O=c1[nH][nH]c(=O)c2c(NS(=O)(=O)c3ccccc3)cccc12 | – | inactive: -11.3% |
| O=C(NCc1ccccc1)C(=O)NCC1OCCN1S(=O)(=O)c1ccc2c(c1)OCCO2 (stereo unspecified) | – | inconclusive: 0.792% |
| COc1ccc(C(=O)O)cc1S(=O)(=O)NCCc1ccccn1 | inconclusive: 6.31 µM [falling, partial curve, poor fit] | – |
| CSc1ccccc1NC(=O)CN(C)CC(=O)Nc1c(F)cccc1F | – | inconclusive: -1.84% |
| O=C(c1c(F)cccc1F)N1CCN(S(=O)(=O)c2ccc3c(c2)OCCO3)CC1 | inconclusive: 20.6 µM [falling, single point] | – |
| Cc1cccc(-c2nc(CSCC(=O)N3CCN(c4ccccn4)CC3)c(C)o2)c1 | – | inconclusive: -13.8% |
| COc1ccc(CCNC(=S)Nc2cccc(C)c2)cc1 | – | inconclusive: 22.6% |

Remaining list, next part:

SMILES | Potency | activity change, negative = inhibition
O=C1CC(c2c[nH]c3ccccc23)C(=O)N1 (stereo unspecified) | – | inconclusive: 8.79%
COc1ccc(OC)c(S(=O)(=O)NNC(=S)Nc2ccc3c(c2)OCO3)c1 | – | inconclusive: -0.921%
COc1cccc(C2=NN(C(=O)c3ccco3)C(O)(C(F)(F)F)C2)c1 (stereo unspecified) | inconclusive: 2.82 µM [falling, full curve, poor fit] | –
CC1(c2ccccc2)NC(=O)N(CC(=O)NNC(=O)c2cccc(Cl)c2)C1=O (stereo unspecified) | – | inconclusive: 6.05%
O=C1Cc2cc([N+](=O)[O-])ccc2N1c1c(Cl)cccc1Cl | – | inactive: 9.58%
Cc1cc(C)n(-c2nc(Nc3ccccc3C)nc(-n3nc(C)cc3C)n2)n1 | – | inconclusive: 22.5%
CCCCC(=O)Nc1cc(C(=O)NCCc2ccccc2)ccc1Cl | inconclusive: 35.5 µM [falling, single point] | –
CC(C)S(=O)(=O)N1CCCC(C(=O)c2cccc(Cl)c2)C1 (stereo unspecified) | – | inconclusive: 0.3%
CCN1C(=O)S/C(=C\c2ccc(N3CCOCC3)cc2C)C1=O | – | inconclusive: 12.1%
Cc1nc(N)sc1C(=O)NN | inconclusive: 11.2 µM [falling, partial curve] | –
CCOC(=O)c1cc(-c2cccs2)[nH]n1 | – | inconclusive: 1.18%
O=C(O)c1ccccc1N/N=C\c1ccnc2ccccc12 | – | inconclusive: 0.716%
CC(C)Oc1ccc(C(=O)Nc2ccc3c(c2)n(C)c(=O)n3C)cc1 | – | inconclusive: -4.15%
Cc1ccc(Cn2c(SCC(=O)N/N=C/c3ccc(C)o3)nc3ccccc32)cc1 | inconclusive: 18.4 µM [falling, partial curve] | –
COc1cc(C(=O)COC(=O)C2CCN(c3ccc(C(F)(F)F)cn3)CC2)ccc1OC(F)F | – | inconclusive: 18.9%
CC(NC(=O)CCC1COc2ccccc2O1)c1ccccc1 (stereo unspecified) | inconclusive: 29.1 µM [rising, single point] | –
Cc1ccc(-c2nc(N)sc2CC(=O)OCC(=O)NCCC(C)C)cc1 | – | inconclusive: 0.48%
N=C1C(c2nc3ccccc3s2)=C(O)CN1CCCO | – | inconclusive: 7.02%
CCOC(=O)c1nnn(-c2nn3nnnc3c3ccccc23)c1C | – | inconclusive: 0.335%
CCOC(=O)c1c(-c2ccccc2)oc2ccc(O)c(CN3CCOCC3)c12 | – | inconclusive: -0.24%
CCCC(=O)Nc1nnc(SCC)s1 | – | inconclusive: 2.54%
Cc1cccc2sc(NC(=O)CCNS(=O)(=O)c3cccs3)nc12 | – | inconclusive: 8.73%
N#CC1=C(N)C(C#N)(C#N)C(c2cccnc2)C2CN(C(=O)OCc3ccccc3)CC=C12 (stereo unspecified) | inconclusive: 13 µM [falling, partial curve] | –
O=C(Nc1ccc([N+](=O)[O-])cc1)c1ccccc1F | inconclusive: 25.1 µM [falling, partial curve] | –
CCOC(=O)N1CCN(S(=O)(=O)c2c(C)[nH]c(=O)[nH]c2=O)CC1 | – | inconclusive: 7.21%
